Measurements published in article doi:10.64898/2025.12.17.695032.

Chains of the proteins cited; added tags and fusions are not shown. Lines headed by an entry give the natural chain unless they say otherwise; changes in a name come on top.
UniProt P01127: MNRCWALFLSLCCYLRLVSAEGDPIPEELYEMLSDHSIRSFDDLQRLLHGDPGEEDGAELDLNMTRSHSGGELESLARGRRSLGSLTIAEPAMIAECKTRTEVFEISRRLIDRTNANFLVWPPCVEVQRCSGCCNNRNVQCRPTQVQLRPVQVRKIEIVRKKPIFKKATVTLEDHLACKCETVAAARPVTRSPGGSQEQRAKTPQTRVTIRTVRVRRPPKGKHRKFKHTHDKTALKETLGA

Molecular target: His-tagged PDGF-B (UniProt P01127)
Test: co-IP

binding: binds
B1: FLAG epitope-tagged SCUBE2 (protein, UniProt Q9NQ36 32-999)
chain: VPPGRGRAAGPQEDVDECAQGLDDCHADALCQNTPTSYKCSCKPGYQGEGRQCEDIDECGNELNGGCVHDCLNIPGNYRCTCFDGFMLAHDGHNCLDVDECLENNGGCQHTCVNVMGSYECCCKEGFFLSDNQHTCIHRSEEGLSCMNKDHGCSHICKEAPRGSVACECRPGFELAKNQRDCILTCNHGNGGCQHSCDDTADGPECSCHPQYKMHTDGRSCLEREDTVLEVTESNTTSVVDGDKRVKRRLLMETCAVNNGGCDRTCKDTSTGVHCSCPVGFTLQLDGKTCKDIDECQTRNGGCDHFCKNIVGSFDCGCKKGFKLLTDEKSCQDVDECSLDRTCDHSCINHPGTFACACNRGYTLYGFTHCGDTNECSINNGGCQQVCVNTVGSYECQCHPGYKLHWNKKDCVEVKGLLPTSVSPRVSLHCGKSGGGDGCFLRCHSGIHLSSDVTTIRTSVTFKLNEGKCSLKNAELFPEGLRPALPEKHSSVKESFRYVNLTCSSGKQVPGAPGRPSTPKEMFITVEFELETNQKEVTASCDLSCIVKRTEKRLRKAIRTLRKAVHREQFHLQLSGMNLDVAKKPPRTSERQAESCGVGQGHAENQCVSCRAGTYYDGARERCILCPNGTFQNEEGQMTCEPCPRPGNSGALKTPEAWNMSECGGLCQPGEYSADGFAPCQLCALGTFQPEAGRTSCFPCGGGLATKHQGATSFQDCETRVQCSPGHFYNTTTHRCIRCPVGTYQPEFGKNNCVSCPGNTTTDFDGSTNITQCKNRRCGGELGDFTGYIESPNYPGNYPANTECTWTINPPPKRRILIVVPEIFLPIEDDCGDYLVMRKTSSSNSVTTYETCQTYERPIAFTSRSKKLWIQFKSNEGNSARGFQVPYVTYDEDYQELIEDIVRDGRLYASENHQEILKDKKLIKALFDVLAHPQNYFKYTAQESREMFPRSFIRLLRSKVSRFLRPYK

Results are given in words; binding and its absence hold for the method and conditions named. Binding seen in cells or lysates may run through a third protein. Binding can be weak; no strength is given. Sequences can lack the tags named with a protein.
